This experiment addresses T1, Kinesin Family Member 3B (human (endogenous in ESCC cells)) (UniProt O15066).
T1 sequence: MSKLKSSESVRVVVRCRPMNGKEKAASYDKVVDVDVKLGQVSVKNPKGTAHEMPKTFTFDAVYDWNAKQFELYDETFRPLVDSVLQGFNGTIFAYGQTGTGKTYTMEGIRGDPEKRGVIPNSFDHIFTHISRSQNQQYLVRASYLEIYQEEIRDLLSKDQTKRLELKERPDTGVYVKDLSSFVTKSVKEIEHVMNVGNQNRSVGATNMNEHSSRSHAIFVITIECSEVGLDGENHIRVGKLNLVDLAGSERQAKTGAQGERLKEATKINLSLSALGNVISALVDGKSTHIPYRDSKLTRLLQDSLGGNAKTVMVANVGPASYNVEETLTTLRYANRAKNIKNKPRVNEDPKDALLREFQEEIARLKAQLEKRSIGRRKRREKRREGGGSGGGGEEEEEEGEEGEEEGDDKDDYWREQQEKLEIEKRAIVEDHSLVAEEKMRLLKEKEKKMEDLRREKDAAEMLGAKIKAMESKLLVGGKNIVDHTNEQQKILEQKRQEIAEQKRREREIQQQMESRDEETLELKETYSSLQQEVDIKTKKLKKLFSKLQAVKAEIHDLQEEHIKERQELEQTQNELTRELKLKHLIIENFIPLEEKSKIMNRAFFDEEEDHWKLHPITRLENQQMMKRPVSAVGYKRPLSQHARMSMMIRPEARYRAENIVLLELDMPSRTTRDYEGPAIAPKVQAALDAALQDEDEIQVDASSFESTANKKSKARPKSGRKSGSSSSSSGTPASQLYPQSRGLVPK
Put plainly: affinity purification with mass spectrometry; lysed cells immunoprecipitated with IgG or anti-KIF3B antibody (IP Kit, Dai-an); gel strips analysed on a Q-Exactive, Proteome Discoverer.

The chains behind the UniProt entries cited, without tags or fusion partners. Where a name states a change or a piece, a line headed by the entry shows the natural chain unless it says otherwise. Residues count along the entry.
UniProt P05556: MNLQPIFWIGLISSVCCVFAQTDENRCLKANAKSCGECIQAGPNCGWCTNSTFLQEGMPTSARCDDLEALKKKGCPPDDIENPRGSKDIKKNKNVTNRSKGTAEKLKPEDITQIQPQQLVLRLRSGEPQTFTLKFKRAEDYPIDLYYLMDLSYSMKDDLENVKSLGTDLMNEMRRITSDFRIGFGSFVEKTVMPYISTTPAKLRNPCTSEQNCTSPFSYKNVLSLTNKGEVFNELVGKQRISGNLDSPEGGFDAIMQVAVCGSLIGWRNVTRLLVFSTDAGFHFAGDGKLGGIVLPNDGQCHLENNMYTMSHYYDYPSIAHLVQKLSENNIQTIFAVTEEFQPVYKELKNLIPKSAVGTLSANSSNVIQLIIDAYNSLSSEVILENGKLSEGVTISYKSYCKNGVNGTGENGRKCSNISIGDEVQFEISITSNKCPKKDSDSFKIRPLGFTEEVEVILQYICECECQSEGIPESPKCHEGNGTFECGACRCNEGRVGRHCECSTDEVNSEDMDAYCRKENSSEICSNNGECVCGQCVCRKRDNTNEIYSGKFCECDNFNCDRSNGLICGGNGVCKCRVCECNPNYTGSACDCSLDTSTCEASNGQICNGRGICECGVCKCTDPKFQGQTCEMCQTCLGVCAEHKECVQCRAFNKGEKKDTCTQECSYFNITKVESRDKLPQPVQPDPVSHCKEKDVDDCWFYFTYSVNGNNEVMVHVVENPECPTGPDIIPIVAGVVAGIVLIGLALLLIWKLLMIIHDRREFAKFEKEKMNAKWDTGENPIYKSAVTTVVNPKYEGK
UniProt P16070, residues 21-742: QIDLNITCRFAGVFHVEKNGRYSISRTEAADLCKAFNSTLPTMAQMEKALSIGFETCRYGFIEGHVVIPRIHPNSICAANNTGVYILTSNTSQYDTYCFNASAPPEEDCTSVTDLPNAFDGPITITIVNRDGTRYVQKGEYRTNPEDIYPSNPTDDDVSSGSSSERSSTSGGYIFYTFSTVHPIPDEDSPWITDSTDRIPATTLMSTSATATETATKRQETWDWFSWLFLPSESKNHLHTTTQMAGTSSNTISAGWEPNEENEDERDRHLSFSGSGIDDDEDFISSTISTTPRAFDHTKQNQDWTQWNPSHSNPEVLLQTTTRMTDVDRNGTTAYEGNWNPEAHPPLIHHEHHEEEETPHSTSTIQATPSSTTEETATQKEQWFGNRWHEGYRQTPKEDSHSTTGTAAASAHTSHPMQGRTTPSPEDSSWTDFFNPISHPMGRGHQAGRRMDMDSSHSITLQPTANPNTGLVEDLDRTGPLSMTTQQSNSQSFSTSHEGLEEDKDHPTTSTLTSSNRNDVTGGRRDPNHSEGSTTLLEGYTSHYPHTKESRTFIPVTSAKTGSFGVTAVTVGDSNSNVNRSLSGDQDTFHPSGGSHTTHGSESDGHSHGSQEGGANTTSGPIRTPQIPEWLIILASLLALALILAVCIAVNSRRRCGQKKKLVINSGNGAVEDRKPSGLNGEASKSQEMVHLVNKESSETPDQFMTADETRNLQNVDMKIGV

No constants are given. Whether binding was seen depends on the method and setting. In cells and extracts the contact can be indirect. These calls come from enrichment with a bait or labelling near it, and not all partners need be listed.

On to “EGFR (from UniProt P00533 25-1210) (receptor)”, for which the binding entry is “binds”. Consider “Integrin-beta1 (from UniProt P05556 21-798) (receptor)”, for which the binding entry is recorded as “binds”. Consider “CD44 (from UniProt P16070 21-742) (receptor)”, for which the binding entry was “binds”.

Source of the values: paper PMC10709558.
